The other results are listed elsewhere or left out. Single values are uncertain, as repeats are few or missing.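 Imaging used 1,536-well plates; nuclei positive for cleaved PARP by antibody were divided by total DNA-stained nuclei to yield the apoptosis fraction. Doses for screening kept most cells viable, and cell lines differ markedly in resting and induced cleaved-PARP levels.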
Assays:
Experiment in all cases: cleaved PARP positive nuclei fraction relative to DMSO control; melanoma cells; higher = more apoptosis
Settings in all cases: library dose: low library concentration; 72 h
[1] = tested on: 501Mel
[2] = tested on: A101D
[3] = tested on: A2058
[4] = tested on: A375
[5] = tested on: C32
[6] = tested on: CBRC008 (line from a melanoma biopsy)
[7] = tested on: CBRC013 (line from a melanoma biopsy)
[8] = tested on: CBRC014 (line from a melanoma biopsy)
[9] = tested on: CBRC016 (line from a melanoma biopsy)
[10] = tested on: CBRC017 (line from a melanoma biopsy)

Row | SMILES | cleaved PARP positive nuclei fraction [1] [%] | cleaved PARP positive nuclei fraction [2] [%] | cleaved PARP positive nuclei fraction [3] [%] | cleaved PARP positive nuclei fraction [4] [%] | cleaved PARP positive nuclei fraction [5] [%] | cleaved PARP positive nuclei fraction [6] [%] | cleaved PARP positive nuclei fraction [7] [%] | cleaved PARP positive nuclei fraction [8] [%] | cleaved PARP positive nuclei fraction [9] [%] | cleaved PARP positive nuclei fraction [10] [%]
1 | C=CCNC1=C2C[C@@H](C)C[C@H](OC)[C@H](O)[C@@H](C)/C=C(\C)[C@H](OC(N)=O)[C@@H](OC)/C=C\C=C(/C)C(=O)NC(=CC1=O)C2=O [Tanespimycin] + C[C@@H]1CCN(C(=O)CC#N)C[C@@H]1N(C)c1ncnc2[nH]ccc12 [CP690550] (first compound 0.002 µM, partner dose 1 µM) | 33.5 | 181 | 73 | 156 | 272 | 391 | 118 | 104 | 140 | 105
2 | Cc1ccc(NC(=O)c2cccc(N(C)C)c2)cc1NC(=O)c1ccc(O)cc1 + O=C(Nc1cccc(Cl)c1)Nc1ncc(CCNc2ncnc3ccsc23)s1 [SNS314] (first compound 2 µM, partner dose 0.0008 µM) | 70 | 89.7 | 92.1 | 72.9 | 158 | 77.1 | 87.7 | 111 | 154 | 95.7
3 | Cn1nnc2c(C(N)=O)ncn2c1=O [temozolomide] + NCC(=O)Nc1ccc(-n2nc(C(F)(F)F)cc2-c2ccc3c(ccc4ccccc43)c2)cc1 [OSU03012] (first compound 2 µM, partner dose 1 µM) | 485 | 80 | 81.5 | 1740 | 92.4 | 143 | 92 | 94 | 119 | 78.2
4 | Clc1ccc(Nc2nnc(Cc3ccncc3)c3ccccc23)cc1 [vatalanib] + CO[C@@H]1[C@H](N(C)C(=O)c2ccccc2)C[C@H]2O[C@]1(C)n1c3ccccc3c3c4c(c5c6ccccc6n2c5c31)C(=O)NC4 [Midostaurin] (first compound 2 µM, partner dose 0.08 µM) | 68.5 | 102 | 132 | 142 | 109 | 145 | 144 | 88.6 | 208 | 103
5 | CC(C)(C)c1cnc(CSc2cnc(NC(=O)C3CCNCC3)s2)o1 + CN(NC(=O)CC(=O)NN(C)C(=S)c1ccccc1)C(=S)c1ccccc1 [STA4783] (first compound 0.01 µM, partner dose 0.006 µM) | 119 | 149 | 139 | 3730 | 293 | 1310 | 131 | 806 | 283 | 229
6 | Cn1c(Nc2ccc(C(F)(F)F)cc2)nc2cc(Oc3ccnc(-c4ncc(C(F)(F)F)[nH]4)c3)ccc21 + C[C@@H]1CCN(C(=O)CC#N)C[C@@H]1N(C)c1ncnc2[nH]ccc12 [CP690550] (first compound 0.08 µM, partner dose 1 µM) | 95.3 | 134 | 60.9 | 127 | 69.2 | 238 | 114 | 89 | 132 | 108
7 | COc1cc(Nc2ncc(F)c(Nc3ccc4c(n3)NC(=O)C(C)(C)O4)n2)cc(OC)c1OC [Tamatinib] + NCC(=O)Nc1ccc(-n2nc(C(F)(F)F)cc2-c2ccc3c(ccc4ccccc43)c2)cc1 [OSU03012] (first compound 0.4 µM, partner dose 1 µM) | 101 | 109 | 82.7 | 2950 | 40.8 | 529 | 249 | 321 | 147 | 99.1
8 | O=C(CCCCCCC(=O)Nc1ccccc1)NO [vorinostat] + COc1cc(Nc2ncc(F)c(Nc3ccc4c(n3)NC(=O)C(C)(C)O4)n2)cc(OC)c1OC [Tamatinib] (first compound 0.08 µM, partner dose 0.4 µM) | 90.5 | 195 | 222 | 80.9 | 100 | 60.9 | 71.1 | 80.4 | 121 | 94
9 | Cn1cncc1[C@@](N)(c1ccc(Cl)cc1)c1ccc2c(c1)c(-c1cccc(Cl)c1)cc(=O)n2C [tipifarnib] + O=C(O)c1ccc(-c2c[nH]c3ncc(-c4ccccc4)cc23)cc1C1CCCC1 [GSK650394] (first compound 0.01 µM, partner dose 0.16 µM) | 98.7 | 44.9 | 56.2 | 146 | 16.4 | 179 | 96.2 | 123 | 182 | 145
10 | CO[C@@H]1[C@H](N(C)C(=O)c2ccccc2)C[C@H]2O[C@]1(C)n1c3ccccc3c3c4c(c5c6ccccc6n2c5c31)C(=O)NC4 [Midostaurin] + Cc1cc(N2CCOCC2)cc2[nH]c(-c3c(NC[C@@H](O)c4cccc(Cl)c4)cc[nH]c3=O)nc12 [BMS536924] (first compound 0.08 µM, partner dose 0.2 µM) | 94.4 | 256 | 140 | 165 | 316 | 148 | 122 | 95.2 | 383 | 96.6
11 | O=C(CCCCCCC(=O)Nc1ccccc1)NO [vorinostat] + C=CCn1c(=O)c2cnc(Nc3ccc(N4CCN(C)CC4)cc3)nc2n1-c1cccc(C(C)(C)O)n1 [MK1775] (first compound 0.08 µM, partner dose 0.02 µM) | 91.4 | 75.9 | 27.2 | 105 | 76.5 | 108 | 102 | 215 | 91.8 | 86.6
12 | CC(C)(C)c1cnc(CSc2cnc(NC(=O)C3CCNCC3)s2)o1 + O=C(O)c1ccc(-c2c[nH]c3ncc(-c4ccccc4)cc23)cc1C1CCCC1 [GSK650394] (first compound 0.01 µM, partner dose 0.16 µM) | 85.1 | 129 | 80.3 | 124 | 108 | 366 | 109 | 77.4 | 86 | 103
13 | C#Cc1cccc(Nc2ncnc3cc(OCCOC)c(OCCOC)cc23)c1 [erlotinib] + COc1cc(Nc2ncc(F)c(Nc3ccc4c(n3)NC(=O)C(C)(C)O4)n2)cc(OC)c1OC [Tamatinib] (first compound 0.8 µM, partner dose 0.4 µM) | 90.5 | 44.9 | 194 | 107 | 120 | 555 | 168 | 111 | 69.8 | 167
14 | Clc1ccc(Nc2nnc(Cc3ccncc3)c3ccccc23)cc1 [vatalanib] + COc1ccc(Cl)c(Nc2nc3ccccc3nc2NS(=O)(=O)c2cccc(NC(=O)C(C)(C)N)c2)c1 [XL147] (first compound 2 µM, partner dose 0.8 µM) | 158 | 143 | 121 | 202 | 45.5 | 323 | – | 156 | 214 | 138
15 | C=CCNC1=C2C[C@@H](C)C[C@H](OC)[C@H](O)[C@@H](C)/C=C(\C)[C@H](OC(N)=O)[C@@H](OC)/C=C\C=C(/C)C(=O)NC(=CC1=O)C2=O [Tanespimycin] + CC(=O)c1c(C)c2cnc(Nc3ccc(N4CCNCC4)cn3)nc2n(C2CCCC2)c1=O [palbociclib] (first compound 0.002 µM, partner dose 0.04 µM) | 218 | 57.3 | 54.2 | 189 | 221 | 143 | – | 97.4 | 67.5 | 133
16 | Clc1ccc(Nc2nnc(Cc3ccncc3)c3ccccc23)cc1 [vatalanib] + Cc1nc(Nc2ncc(C(=O)Nc3c(C)cccc3Cl)s2)cc(N2CCN(CCO)CC2)n1 [dasatanib] (first compound 2 µM, partner dose 0.004 µM) | 112 | 55.9 | 165 | 217 | 284 | 34.6 | – | 126 | 184 | 270
17 | OCc1c[nH]c2ccccc12 [Indole-3-carbinol] + COc1ccc(Cl)c(Nc2nc3ccccc3nc2NS(=O)(=O)c2cccc(NC(=O)C(C)(C)N)c2)c1 [XL147] (first compound 0.8 µM, partner dose 0.8 µM) | 89.4 | 49.8 | 56 | 191 | 80.1 | 82.2 | – | 104 | 89.8 | 106
18 | OCc1c[nH]c2ccccc12 [Indole-3-carbinol] + C[C@]1(c2nc3c(C(N)=O)cccc3[nH]2)CCCN1 [Veliparib] (first compound 0.8 µM, partner dose 1.4 µM) | 146 | 238 | 193 | 107 | 103 | 184 | – | 83.3 | 73.4 | 114
19 | CC(=O)c1c(C)c2cnc(Nc3ccc(N4CCNCC4)cn3)nc2n(C2CCCC2)c1=O [palbociclib] + C[C@]1(c2nc3c(C(N)=O)cccc3[nH]2)CCCN1 [Veliparib] (first compound 0.04 µM, partner dose 1.4 µM) | 104 | 111 | 151 | 476 | 85.7 | 40.7 | – | 115 | 37.8 | 187
20 | COCC[n+]1c2c(n(Cc3cnccn3)c1C)C(=O)c1ccccc1C2=O + Cn1nnc2c(C(N)=O)ncn2c1=O [temozolomide] (first compound 0.0004 µM, partner dose 2 µM) | 157 | 192 | 115 | 156 | 80.9 | 447 | – | 92.2 | 193 | 120
21 | Clc1ccc(Nc2nnc(Cc3ccncc3)c3ccccc23)cc1 [vatalanib] + C=CCn1c(=O)c2cnc(Nc3ccc(N4CCN(C)CC4)cc3)nc2n1-c1cccc(C(C)(C)O)n1 [MK1775] (first compound 2 µM, partner dose 0.02 µM) | 110 | 118 | 51.1 | 390 | 91.5 | 433 | 99.8 | 160 | 214 | 101
22 | COCC[n+]1c2c(n(Cc3cnccn3)c1C)C(=O)c1ccccc1C2=O + C[C@]1(c2nc3c(C(N)=O)cccc3[nH]2)CCCN1 [Veliparib] (first compound 0.0004 µM, partner dose 1.4 µM) | 81.9 | 159 | 227 | 136 | 83.9 | 193 | – | 97.5 | 166 | 153

Record cards (already shown). Values in the order: cleaved PARP positive nuclei fraction [1] [%]	cleaved PARP positive nuclei fraction [2] [%]	cleaved PARP positive nuclei fraction [3] [%]	cleaved PARP positive nuclei fraction [4] [%]	cleaved PARP positive nuclei fraction [5] [%]	cleaved PARP positive nuclei fraction [6] [%]	cleaved PARP positive nuclei fraction [7] [%]	cleaved PARP positive nuclei fraction [8] [%]	cleaved PARP positive nuclei fraction [9] [%]	cleaved PARP positive nuclei fraction [10] [%]
CO[C@@H]1[C@H](N(C)C(=O)c2ccccc2)C[C@H]2O[C@]1(C)n1c3ccccc3c3c4c(c5c6ccccc6n2c5c31)C(=O)NC4 [Midostaurin] + Cc1cc(N2CCOCC2)cc2[nH]c(-c3c(NC[C@@H](O)c4cccc(Cl)c4)cc[nH]c3=O)nc12 [BMS536924] (first compound 0.08 µM, partner dose 0.2 µM) is listed with 94.4	256	140	165	316	148	122	95.2	383	96.6
Cn1cncc1[C@@](N)(c1ccc(Cl)cc1)c1ccc2c(c1)c(-c1cccc(Cl)c1)cc(=O)n2C [tipifarnib] + O=C(O)c1ccc(-c2c[nH]c3ncc(-c4ccccc4)cc23)cc1C1CCCC1 [GSK650394] (first compound 0.01 µM, partner dose 0.16 µM) is listed with 98.7	44.9	56.2	146	16.4	179	96.2	123	182	145

Source: the supplement of paper PMC4604168 (melanoma cell lines)
